Test results reported in patent publication US6034211A, “β-sheet nucleating peptidomimetics” (priority 1996, dated 2000).
At least one peptide structure holds a part that was inferred or is arguable (an end, a ring closure or a residue). Starred links: 1 amine or outer side, 2 acyl side, 3 side chain; linkers in the order of their positions; H or OH if unused. Non-standard residues stand in square brackets, D forms with d. Residues, ends and D or L forms follow the SMILES beside them. No end group written: not given here. X1 = O=C(CCc1ccccc1-c1cccc(CCN[*:1])c1)[*:2]; Orn = NCCC[C@H](N)C(=O)O

Experiments:
[1] = Far-UV circular dichroism studies of peptide folding (random coil vs β-sheet); assay type: physicochemical
Procedure: Heptapeptide A has an -amino acid sequence homologous to a 4-(2-aminoethyl)-6-dibenzofuranpropionic acid-based heptapeptide studied previously, allowing comparsion of the efficacy of the biphenyl- and dibenzofuran-based amino acids as nucleators in a momologous α-aminoacid sequence. Peptide B, having a Phe in place of Leu-3, was prepared to test the feasibility of using an aromatic-aromatic interaction to stabilize the hydrophobic cluster and facilitate β-sheet folding. In peptide C, ornithine-2 was replaced with Glu to probe the effect of an addition long-range residue-residue electrostatic interaction (salt bridge) on β-sheet stability in the context of a heptapeptide.
The high charge density on peptides D and E should prevent the favorable strand-strand interactions required for sheet formation at low pH. The removal of two or more of the charges on the Lys ε-ammonium groups effected by increasing the pH is expected to facilitate intramolecular folding followed by self-assembly. A leucine was employed as one of the flanking residues in these peptides instead of valine because the increased side chain flexibility should maximize packing interactions required for hydrophobic cluster formation. […] Peptide E was identical to peptide D except that it incorporated residue 2A in place of residue 1A. […] Peptide F was prepared to probe the importance of hydrophobic cluster formation in β-sheet folding mediated by residue 1A. The flanking hydrophobic residues in peptide D were replaced with hydrophilic lysine residues in peptide F while maintaining a highly momologous amino acid composition and an amphiphilic periodicity of 2A.

[2] = Amide proton/deuterium exchange studies by NMR; assay type: physicochemical
Procedure: Information concerning the hydrogen-bonding network within a peptide containing residue 1A in aqueous solution was obtained from amide exchange studies of peptide A (3.0-3.3 mM, pH 3.4-3.6) and peptide D (2.5-2.9 mM, pH 4.1-5.1) where peptides A and D appear to be unstructured by far-UV CD.
Amide exchange studies at pH 3.2 were used to examine the hydrogen-bonding properties of peptide G which is expected to be partially folded on the basis of the studies discussed above.

[3] = Electron microscopy of soluble high molecular weight assemblies (Ruthenium Red stain); assay type: physicochemical; conditions: 0.041 mM solution, pH 10.2, 10 mM borate buffer
[4] = Analytical equilibrium ultracentrifugation (solution molecular weight, quaternary structure); conditions: 0.15 mmol, pH 9.1; sedimentation even at low rotor speeds
[5] = Observation of insoluble aggregates / precipitation as a function of pH and concentration; assay type: physicochemical; conditions: highly alkaline conditions, 0.15 mM

## CC(C)C[C@H](NC(=O)[C@H](CCCN)NC(=O)[C@@H](NC(=O)CCc1ccccc1-c1cccc(CCNC(=O)[C@H](CC(C)C)NC(=O)[C@H](CCCN)NC(=O)[C@@H](N)C(C)C)c1)C(C)C)C(N)=O [A, Val Orn Leu 1A Val Orn Leu] (H-V[Orn]L[X1]V[Orn]L-NH2)
[1]; aqueous solution, pH range of 4-9
  structure by far-UV CD: random coil

## KVKVKVGGVKVKVK-NH2 [H, Lys Val Lys Val Lys Val GG Val Lys Val Lys Val Lys]
[2]
  range of amide exchange rates compared to peptide G: very narrow

## CC(C)C[C@H](NC(=O)[C@H](CCCCN)NC(=O)[C@@H](NC(=O)[C@H](CCCCN)NC(=O)[C@@H](NC(=O)[C@@H](N)CCCCN)C(C)C)C(C)C)C(=O)NCCc1cccc(-c2ccccc2CCC(=O)N[C@H](C(=O)N[C@@H](CCCCN)C(=O)N[C@H](C(=O)N[C@@H](CCCCN)C(=O)N[C@H](C(=O)N[C@@H](CCCCN)C(N)=O)C(C)C)C(C)C)C(C)C)c1 [Peptide D, Lys Val Lys Val Lys Leu 1A Val Lys Val Lys Val Lys] (H-KVKVKL[X1]VKVKVK-NH2)
[3]
  width of fibril-fibril assemblies: > 50 Å
[3]; 80000×
  fibril dimensions, length: 500-1000 Å
  fibril dimensions, width: ~ 30 Å
[4]
  quaternary structure by analytical equilibrium ultracentrifugation: highly associated soluble β-sheet structure
[5]
  pH at which insoluble aggregates are observed: > 10
[1]; concentration range 0.075-0.15 mM, pH 9.3
  structure by far-UV CD: self-associated β-sheet
[1]; concentrations below 0.075 mM, pH 9.3
  structure by far-UV CD: mixture of random coil and β-sheet structures
[1]; pH 8.9, 0.25 mM peptide F, 0.15 mM peptide D
  folding by far-UV CD: adopted a β-sheet structure
